{"source": "PubChem BioAssay AID686938, Drosophila RNAi Screening Center, 2013", "test": "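Looking for CRAC channel components and the factors controlling them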 (primary screen)", "system": "Drosophila S2R+ cells", "knock-down reagent": "long dsRNA against Drosophila genes, about 0.25 µg dsRNA per well, roughly 10,000 cells", "duration": "5 days of knock-down before the calcium assay", "conditions": "thapsigargin (SERCA pump blocker) to empty calcium stores; entry signal taken 4 min after adding it", "measured": "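Duplicate raw fluo-4 intensities per well from a plate reader, at rest and four minutes after thapsigargin emptied calcium stores; entry-to-rest ratio filled for only some wells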", "direction": "calcium entry signal: higher = stronger calcium signal after store depletion; resting calcium signal: higher = higher resting calcium signal", "active means": "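Hit if the duplicate-averaged plate z-score for entry over resting signal is under −3; wells with weak total dye signal (Fmax z < −2) or more than 5 off-targets removed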", "calls": "active = strongly reduced calcium entry; inactive = no strong reduction", "note": "The deposit covers about 23,000 reagents; this is an unselected part of those with a known target gene and a result. Of all reagents, 75 (0.33%) were called active. 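Raw plate signals without normalisation; calls rest on plate z-scores that were not deposited; ratio present for only 364 wells.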 The record does not give: the dose of the treatment."}
{"gene knocked down": "CG30486", "DRSC id": "DRSC06680", "calcium entry signal, replicate 1 (fluorescence units)": 3.25e7, "calcium entry signal, replicate 2 (fluorescence units)": 4.20e7, "resting calcium signal, replicate 1 (fluorescence units)": 1.71e7, "resting calcium signal, replicate 2 (fluorescence units)": 1.83e7, "activity call": "inactive"}
{"gene knocked down": "Pus1", "DRSC id": "DRSC15548", "calcium entry signal, replicate 1 (fluorescence units)": 4.23e7, "calcium entry signal, replicate 2 (fluorescence units)": 3.76e7, "resting calcium signal, replicate 1 (fluorescence units)": 6.00e7, "resting calcium signal, replicate 2 (fluorescence units)": 1.77e7, "activity call": "inactive"}
{"gene knocked down": "CG14715", "DRSC id": "DRSC14938", "calcium entry signal, replicate 1 (fluorescence units)": 2.83e7, "calcium entry signal, replicate 2 (fluorescence units)": 3.01e7, "resting calcium signal, replicate 1 (fluorescence units)": 1.26e7, "resting calcium signal, replicate 2 (fluorescence units)": 1.41e7, "activity call": "inactive"}
{"gene knocked down": "und", "DRSC id": "DRSC03629", "calcium entry signal, replicate 1 (fluorescence units)": 4.35e7, "resting calcium signal, replicate 1 (fluorescence units)": 2.15e7, "activity call": "inactive"}
{"gene knocked down": "yellow-d2", "DRSC id": "DRSC04591", "calcium entry signal, replicate 1 (fluorescence units)": 3.43e7, "calcium entry signal, replicate 2 (fluorescence units)": 3.59e7, "resting calcium signal, replicate 1 (fluorescence units)": 1.70e7, "resting calcium signal, replicate 2 (fluorescence units)": 1.43e7, "activity call": "inactive"}
{"gene knocked down": "ArfGAP1", "DRSC id": "DRSC11173", "calcium entry signal, replicate 1 (fluorescence units)": 2.80e7, "calcium entry signal, replicate 2 (fluorescence units)": 3.78e7, "resting calcium signal, replicate 1 (fluorescence units)": 1.62e7, "resting calcium signal, replicate 2 (fluorescence units)": 1.85e7, "activity call": "inactive"}
{"gene knocked down": "Atf6", "DRSC id": "DRSC04743", "calcium entry signal, replicate 1 (fluorescence units)": 3.47e7, "calcium entry signal, replicate 2 (fluorescence units)": 3.31e7, "resting calcium signal, replicate 1 (fluorescence units)": 1.71e7, "resting calcium signal, replicate 2 (fluorescence units)": 1.67e7, "activity call": "inactive"}
{"gene knocked down": "Atf6", "DRSC id": "DRSC04889", "calcium entry signal, replicate 1 (fluorescence units)": 3.11e7, "calcium entry signal, replicate 2 (fluorescence units)": 3.71e7, "resting calcium signal, replicate 1 (fluorescence units)": 1.68e7, "resting calcium signal, replicate 2 (fluorescence units)": 1.64e7, "activity call": "inactive"}
{"gene knocked down": "hb", "DRSC id": "DRSC16963", "calcium entry signal, replicate 1 (fluorescence units)": 2.67e7, "calcium entry signal, replicate 2 (fluorescence units)": 3.15e7, "resting calcium signal, replicate 1 (fluorescence units)": 1.18e7, "resting calcium signal, replicate 2 (fluorescence units)": 1.43e7, "activity call": "inactive"}
{"gene knocked down": "Arp8", "DRSC id": "DRSC20059", "calcium entry signal, replicate 1 (fluorescence units)": 4.41e7, "calcium entry signal, replicate 2 (fluorescence units)": 4.82e7, "resting calcium signal, replicate 1 (fluorescence units)": 1.98e7, "resting calcium signal, replicate 2 (fluorescence units)": 2.27e7, "activity call": "inactive"}
{"gene knocked down": "CG13978", "DRSC id": "DRSC14720", "calcium entry signal, replicate 1 (fluorescence units)": 3.81e7, "calcium entry signal, replicate 2 (fluorescence units)": 5.43e7, "resting calcium signal, replicate 1 (fluorescence units)": 1.97e7, "resting calcium signal, replicate 2 (fluorescence units)": 2.30e7, "activity call": "inactive"}
{"gene knocked down": "pyx", "DRSC id": "DRSC08510", "calcium entry signal, replicate 1 (fluorescence units)": 3.50e7, "calcium entry signal, replicate 2 (fluorescence units)": 4.44e7, "resting calcium signal, replicate 1 (fluorescence units)": 1.86e7, "resting calcium signal, replicate 2 (fluorescence units)": 1.96e7, "activity call": "inactive"}
{"gene knocked down": "pyx", "DRSC id": "DRSC08511", "calcium entry signal, replicate 1 (fluorescence units)": 3.28e7, "calcium entry signal, replicate 2 (fluorescence units)": 3.99e7, "resting calcium signal, replicate 1 (fluorescence units)": 1.70e7, "resting calcium signal, replicate 2 (fluorescence units)": 1.98e7, "activity call": "inactive"}
